PMC4775225, “Bromodomain inhibition of the transcriptional coactivators CBP/EP300 as a therapeutic strategy to target the IRF4 network in multiple myeloma” (eLife, 2016)

Test system: LP-1 cells
Assay: RNA sequencing and Gene Set Enrichment Analysis
Type: cell-based, human
Details: 6 hr

Row | Compound | fraction of MYC gene signatures significantly enriched (LP-1, CPI203 0.25 μM) | fraction of multiple myeloma and IRF4 gene signatures significantly enriched (p<0.05) (LP-1, CPI203 0.25 μM) | genes differentially expressed at least 1.5 fold (LP-1, CPI203 0.25 μM, of 20299 mapped genes) [genes] | fraction of MYC gene signatures significantly enriched (LP-1, SGC-CBP30 2.5 μM) | fraction of multiple myeloma and IRF4 gene signatures significantly enriched (p<0.05) (LP-1, SGC-CBP30 2.5 μM)
1 | Cc1sc2c(c1C)C(c1ccc(Cl)cc1)=N[C@@H](CC(N)=O)c1nnc(C)n1-2 [CPI203] | 26/51 | 9/58 | 2959 | – | –
2 | COc1ccc(CCc2nc3cc(-c4c(C)noc4C)ccc3n2C[C@H](C)N2CCOCC2)cc1Cl [SGC-CBP30] | – | – | – | 15/51 | 26/58
